Primary screen of a compound library

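Whole-parasite assay of Trypanosoma brucei over 72 hours; the read-out is not stated. Concentration: 10 µM. The record gives no direction; compounds that gave an IC50 in retests scored well above the rest, so higher reads as stronger inhibition. Values scatter widely below zero; nearly all retest evidence comes from the higher of the two concentrations used. Size under these conditions: about 2,700 compounds, about 14 of them at 50% or above in at least one test.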

The filed quantity is “Percent Effect” (%). How 0% and 100% were set is not recorded. Most values in the screen are low, and negative values occur. This is an unselected part of the compounds tested.

| compound | percent effect |
|---|---|
| `CCOc1ccccc1C(=O)NC(CC(=O)O)c1cccs1` (centres undefined) | 2.763 |
| `COc1ccc(-c2noc(CN3CCCC3Cn3cccn3)n2)cc1` (centres undefined) | -61.04 |
| `Cc1nc(CN(C)C2CCN(Cc3nc4ccccc4n3C)C2)no1` (centres undefined) | -9.408 |
| `Cc1ccc(-c2nnc(CN3CCOC(Cn4cncn4)C3)o2)cc1` (centres undefined) | 1.841 |
| `O=C(COc1ccccc1)NCCNC(=O)c1scnc1Cl` | -4.767 |
| `CN1CCOC(CNCc2ccccc2OCc2ccccn2)C1` (centres undefined) | -66.13 |
| `O=C(Cc1ccccc1)NCCNC(=O)c1scnc1Cl` | -45.9 |
| `c1ccc2oc(CCCN3CCOC(Cn4cncn4)C3)nc2c1` (centres undefined) | -79.66 |
| `CC(C)(C)c1nc(CN2CCN(C(=O)c3cnccn3)CC2)cs1` | -62.44 |
| `CC1CN(CC(=O)Nc2nccs2)CCN1Cc1nccn1C` (centres undefined) | -29.38 |
| `CCC(C)NC(=O)CS(=O)(=O)Cc1cc(Cl)c2c(c1)OCCCO2` (centres undefined) | -61.77 |
| `O=C(NCc1csc(Br)c1)N1CCC(O)CC1` | -31.84 |
| `Cc1n[nH]c(C2CN(CCc3cccs3)CCO2)n1` (centres undefined) | -40 |
| `COc1ccccc1C(O)CNc1c(C#N)c(=O)n(C)c(=O)n1C` (centres undefined) | -1.784 |
| `Cc1cnn(CC2CN(Cc3ccc(-n4cccn4)cc3)CCO2)c1` (centres undefined) | 10.9 |
| `Cc1cn2c(n1)CCC(NC(=O)c1cc[nH]n1)C2` (centres undefined) | -36.17 |
| `CCc1nc(C2CCCN(C(=O)NCCOC)C2)no1` (centres undefined) | -60.45 |
| `CCN(Cc1ccc(F)c(F)c1)Cc1nc2c(cnn2C)c(=O)[nH]1` | -40.17 |
| `Cn1ccnc1CN1CCN(CC(O)c2cc(F)ccc2F)CC1` (centres undefined) | -21.02 |
| `CN1CCCN(C(=O)NCc2cc(Br)cs2)CC1` | -28.33 |
| `COCCN1CCC(NCc2cc(F)ccc2F)C1` (centres undefined) | -21.63 |
| `Cc1nccn1C1CCCN(C(=O)c2cc3c(F)cccc3[nH]2)C1` (centres undefined) | -50.52 |
| `CCOc1ccc(NC(=O)NCc2cccnc2OCC)cc1` | -43.08 |
| `CC(C)c1n[nH]c(C2CN(CCCS(C)(=O)=O)CCO2)n1` (centres undefined) | -18.76 |
| `CC(C)c1nc(C2CCCN(C(=O)c3cccc4c3OCO4)C2)no1` (centres undefined) | -10.2 |
| `COCCCNC(=O)CN1CCC(N2CCN(C)C2=O)CC1` | -4.479 |
| `Cc1ccc(OCC(O)CN2CCC(Cn3cc(C)cn3)CC2)cc1` (centres undefined) | -12.8 |
| `Cc1ccc(OCCN2CCCC(c3cc(C(N)=O)[nH]n3)C2)cc1` (centres undefined) | -11.14 |
| `CNc1nc(CNC(=O)Nc2cccc(C(C)OC)c2)cs1` (centres undefined) | -30.47 |
| `Cc1cnn(CC2CCCN2c2ncnc3ccsc23)c1` (centres undefined) | -60.82 |
| `CC(C)CCc1nc(CNCC2CN(C)CCO2)cs1` (centres undefined) | -52.93 |
| `Cc1cnn(C2CCCN(C(=O)c3cn(-c4ccccc4)nc3C)C2)c1` (centres undefined) | -47.15 |
| `NC(=O)Cn1cc(NC(=O)N2CCN(c3ccc(F)cc3)CC2)cn1` | -55.77 |
| `O=C(NC1CCN(Cc2cccc3c2OCCO3)CC1)c1cccs1` | 10.83 |
| `CCc1ccc(S(=O)(=O)Nc2cc(C(=O)O)ccc2F)s1` | -56.68 |
| `CC(C)c1nc(C2CCCN(C(=O)c3ccc4[nH]nnc4c3)C2)no1` (centres undefined) | -45.65 |
| `COCCn1cc(NC(=O)NC(C)Cc2c(F)cccc2F)cn1` (centres undefined) | -39.31 |
| `Cc1cnn(CC2CCCN2CC(=O)Nc2nccs2)c1` (centres undefined) | -40.36 |
| `CC(C)CCCNC(=O)Nc1ccc(Cl)c(C(N)=O)c1` | -32.92 |
| `Cc1ccc(C(=O)NC2CCN(Cc3cccc4c3OCCO4)CC2)s1` | -2.683 |
| `O=C(CCn1cccn1)N1CCSCC1` | -45.83 |
| `Cc1nc(C)n(C2CCCN(C(=O)c3ccc4nccn4c3)C2)n1` (centres undefined) | -55.11 |
| `N#Cc1ccc(OCC(O)CN2CCC(c3ccn[nH]3)CC2)cc1` (centres undefined) | 5.752 |
| `O=C(Cc1cn2ccccc2n1)N1CCCC(n2ccnc2)C1` (centres undefined) | -44.17 |
| `CC(C)c1cc(NC(=O)CN2CCCC2c2noc(C(C)C)n2)on1` (centres undefined) | -43.85 |
| `CCc1nccn1C1CCCN(C(=O)COCC(F)(F)F)C1` (centres undefined) | -7.805 |
| `Cc1ccc(-c2nc(CCNC(=O)NCC(C)(C)C(N)=O)co2)cc1` | -10.75 |
| `Cc1cc(C)n(CC2CN(CCOc3ccccc3F)CCO2)n1` (centres undefined) | -28.9 |
| `Cn1nccc1C(=O)Nc1cc(C(F)(F)F)c[nH]c1=O` | -12.05 |

The first 3 entries again:

CCOc1ccccc1C(=O)NC(CC(=O)O)c1cccs1 (centres undefined) read 2.763%.
COc1ccc(-c2noc(CN3CCCC3Cn3cccn3)n2)cc1 (centres undefined) read -61.04%.
Cc1nc(CN(C)C2CCN(Cc3nc4ccccc4n3C)C2)no1 (centres undefined) read -9.408%.

The values are deposited in ChEMBL (CHEMBL3988442, “University of Dundee, Small-Polar-MMV Screening Library” (2021)).